These results are taken from PMC8931116.

The chains behind the UniProt entries cited, without tags or fusion partners.
UniProt P13864: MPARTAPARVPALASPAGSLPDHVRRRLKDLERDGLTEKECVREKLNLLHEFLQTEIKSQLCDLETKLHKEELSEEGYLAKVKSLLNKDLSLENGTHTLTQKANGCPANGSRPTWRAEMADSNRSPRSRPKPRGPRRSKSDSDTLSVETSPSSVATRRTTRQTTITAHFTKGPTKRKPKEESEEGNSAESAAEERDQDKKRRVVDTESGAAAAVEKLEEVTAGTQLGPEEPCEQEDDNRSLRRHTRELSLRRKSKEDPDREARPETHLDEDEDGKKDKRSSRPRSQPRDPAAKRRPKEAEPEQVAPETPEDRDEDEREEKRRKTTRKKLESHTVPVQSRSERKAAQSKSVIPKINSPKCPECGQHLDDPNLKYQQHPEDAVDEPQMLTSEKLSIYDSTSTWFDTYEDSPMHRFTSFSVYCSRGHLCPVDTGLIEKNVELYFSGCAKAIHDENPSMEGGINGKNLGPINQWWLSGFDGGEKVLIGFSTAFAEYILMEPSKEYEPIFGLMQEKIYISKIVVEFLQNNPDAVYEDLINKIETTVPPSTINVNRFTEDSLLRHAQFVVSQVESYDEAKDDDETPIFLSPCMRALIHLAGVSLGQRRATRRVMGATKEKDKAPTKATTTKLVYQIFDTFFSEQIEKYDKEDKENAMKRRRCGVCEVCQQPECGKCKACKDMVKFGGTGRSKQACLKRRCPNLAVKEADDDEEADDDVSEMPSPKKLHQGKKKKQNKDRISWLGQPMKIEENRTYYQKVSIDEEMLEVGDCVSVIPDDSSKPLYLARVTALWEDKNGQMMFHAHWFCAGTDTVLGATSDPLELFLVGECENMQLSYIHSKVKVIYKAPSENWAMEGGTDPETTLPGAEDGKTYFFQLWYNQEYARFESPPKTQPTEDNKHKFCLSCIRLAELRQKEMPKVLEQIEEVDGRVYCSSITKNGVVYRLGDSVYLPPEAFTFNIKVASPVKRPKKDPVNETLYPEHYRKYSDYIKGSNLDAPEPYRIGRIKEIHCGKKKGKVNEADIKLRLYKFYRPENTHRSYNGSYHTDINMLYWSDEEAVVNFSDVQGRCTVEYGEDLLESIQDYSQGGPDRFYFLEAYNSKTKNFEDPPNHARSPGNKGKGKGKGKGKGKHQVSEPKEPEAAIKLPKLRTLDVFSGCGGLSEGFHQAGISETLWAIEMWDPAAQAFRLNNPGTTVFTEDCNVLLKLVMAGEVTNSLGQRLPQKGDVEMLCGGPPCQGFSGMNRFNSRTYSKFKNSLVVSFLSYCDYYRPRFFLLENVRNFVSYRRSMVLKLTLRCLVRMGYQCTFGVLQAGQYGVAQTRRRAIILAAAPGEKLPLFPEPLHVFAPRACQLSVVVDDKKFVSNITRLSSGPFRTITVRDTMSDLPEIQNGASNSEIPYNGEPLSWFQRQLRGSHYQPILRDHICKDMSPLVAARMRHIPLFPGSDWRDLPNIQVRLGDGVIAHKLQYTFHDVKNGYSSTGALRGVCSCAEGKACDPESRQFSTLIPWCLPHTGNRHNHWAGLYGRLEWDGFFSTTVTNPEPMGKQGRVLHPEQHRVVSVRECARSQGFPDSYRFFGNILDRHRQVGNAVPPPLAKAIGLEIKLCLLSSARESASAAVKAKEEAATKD
UniProt Q3TKT4: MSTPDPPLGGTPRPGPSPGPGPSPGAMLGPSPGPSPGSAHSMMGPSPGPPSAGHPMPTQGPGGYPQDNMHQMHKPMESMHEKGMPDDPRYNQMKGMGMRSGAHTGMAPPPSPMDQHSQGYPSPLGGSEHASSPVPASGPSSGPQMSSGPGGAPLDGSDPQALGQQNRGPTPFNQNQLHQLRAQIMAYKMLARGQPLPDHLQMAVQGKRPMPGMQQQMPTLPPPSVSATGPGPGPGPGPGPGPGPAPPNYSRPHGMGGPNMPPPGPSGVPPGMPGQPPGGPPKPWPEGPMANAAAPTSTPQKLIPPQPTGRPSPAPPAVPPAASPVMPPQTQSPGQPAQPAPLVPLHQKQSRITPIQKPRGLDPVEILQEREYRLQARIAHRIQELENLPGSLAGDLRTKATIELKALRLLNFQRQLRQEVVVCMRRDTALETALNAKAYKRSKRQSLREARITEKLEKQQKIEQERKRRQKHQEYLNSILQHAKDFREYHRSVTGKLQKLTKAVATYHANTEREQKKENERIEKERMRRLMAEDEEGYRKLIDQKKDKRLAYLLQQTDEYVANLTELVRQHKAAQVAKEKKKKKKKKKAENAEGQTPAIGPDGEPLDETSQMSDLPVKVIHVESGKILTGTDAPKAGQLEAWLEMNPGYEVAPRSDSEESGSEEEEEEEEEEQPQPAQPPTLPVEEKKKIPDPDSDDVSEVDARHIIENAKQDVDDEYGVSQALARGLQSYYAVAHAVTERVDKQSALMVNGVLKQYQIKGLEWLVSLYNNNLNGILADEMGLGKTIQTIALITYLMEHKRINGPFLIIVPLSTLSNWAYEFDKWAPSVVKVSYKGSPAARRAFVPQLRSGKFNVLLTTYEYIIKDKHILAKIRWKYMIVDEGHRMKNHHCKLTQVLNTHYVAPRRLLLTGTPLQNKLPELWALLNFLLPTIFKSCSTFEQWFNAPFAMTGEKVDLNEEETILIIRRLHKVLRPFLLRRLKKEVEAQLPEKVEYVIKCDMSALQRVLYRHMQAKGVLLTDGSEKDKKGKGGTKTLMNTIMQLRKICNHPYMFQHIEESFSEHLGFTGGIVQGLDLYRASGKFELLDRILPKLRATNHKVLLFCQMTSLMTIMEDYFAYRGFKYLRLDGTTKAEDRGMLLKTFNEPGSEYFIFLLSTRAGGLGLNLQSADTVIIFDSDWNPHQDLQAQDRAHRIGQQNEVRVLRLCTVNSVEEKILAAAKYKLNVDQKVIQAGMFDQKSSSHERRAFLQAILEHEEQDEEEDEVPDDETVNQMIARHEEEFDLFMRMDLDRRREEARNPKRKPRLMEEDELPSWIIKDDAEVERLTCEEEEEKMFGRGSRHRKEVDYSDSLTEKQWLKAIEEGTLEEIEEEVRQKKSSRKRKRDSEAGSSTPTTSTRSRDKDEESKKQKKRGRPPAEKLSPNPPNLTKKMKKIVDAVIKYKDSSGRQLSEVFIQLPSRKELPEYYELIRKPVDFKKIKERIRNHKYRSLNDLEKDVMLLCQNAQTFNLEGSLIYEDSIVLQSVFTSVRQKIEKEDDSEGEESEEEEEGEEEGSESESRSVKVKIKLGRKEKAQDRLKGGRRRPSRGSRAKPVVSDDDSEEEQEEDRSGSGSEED
UniProt Q9Z148: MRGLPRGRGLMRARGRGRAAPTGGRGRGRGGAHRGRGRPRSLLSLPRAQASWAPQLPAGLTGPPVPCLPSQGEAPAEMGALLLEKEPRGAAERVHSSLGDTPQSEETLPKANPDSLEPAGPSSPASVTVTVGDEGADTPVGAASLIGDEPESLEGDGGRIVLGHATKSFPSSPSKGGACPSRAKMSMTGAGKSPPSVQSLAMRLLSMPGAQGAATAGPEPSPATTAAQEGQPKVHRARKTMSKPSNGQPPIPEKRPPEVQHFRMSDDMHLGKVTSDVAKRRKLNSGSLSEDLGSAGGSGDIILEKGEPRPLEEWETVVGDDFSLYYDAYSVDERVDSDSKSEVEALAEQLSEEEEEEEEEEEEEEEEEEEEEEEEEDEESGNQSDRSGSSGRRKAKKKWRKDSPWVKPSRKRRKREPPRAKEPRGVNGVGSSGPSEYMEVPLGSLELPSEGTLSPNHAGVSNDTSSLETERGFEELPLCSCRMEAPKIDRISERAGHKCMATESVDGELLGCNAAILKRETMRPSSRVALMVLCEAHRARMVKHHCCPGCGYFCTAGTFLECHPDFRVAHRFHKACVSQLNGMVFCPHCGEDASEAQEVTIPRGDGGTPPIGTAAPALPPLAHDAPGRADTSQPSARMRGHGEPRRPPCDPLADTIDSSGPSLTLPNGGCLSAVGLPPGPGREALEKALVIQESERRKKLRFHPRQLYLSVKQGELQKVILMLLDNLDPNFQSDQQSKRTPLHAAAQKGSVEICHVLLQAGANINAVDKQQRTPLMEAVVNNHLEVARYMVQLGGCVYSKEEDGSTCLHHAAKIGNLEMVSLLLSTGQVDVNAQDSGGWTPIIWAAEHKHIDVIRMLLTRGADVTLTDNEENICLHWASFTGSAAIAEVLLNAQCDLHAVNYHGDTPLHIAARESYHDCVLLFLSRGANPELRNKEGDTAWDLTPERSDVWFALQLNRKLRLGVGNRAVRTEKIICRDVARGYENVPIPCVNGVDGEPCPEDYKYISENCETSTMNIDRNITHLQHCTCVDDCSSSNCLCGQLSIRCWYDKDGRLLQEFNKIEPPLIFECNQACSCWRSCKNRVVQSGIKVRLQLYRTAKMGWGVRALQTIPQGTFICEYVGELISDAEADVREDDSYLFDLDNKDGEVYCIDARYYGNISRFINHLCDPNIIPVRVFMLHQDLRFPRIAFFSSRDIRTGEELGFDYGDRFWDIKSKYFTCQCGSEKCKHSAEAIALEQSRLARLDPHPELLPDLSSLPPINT

No constants are given. Whether binding was seen depends on the method and setting. In cells and extracts the contact can be indirect. Here binding means that the protein was enriched with, or labelled near, the bait; the list need not be complete. A no says only that the protein was not detected with the bait.

The test concerns the target T1, Oligodendrocyte Transcription Factor 2 OLIG2 (UniProt Q9EQW6).
T1 sequence: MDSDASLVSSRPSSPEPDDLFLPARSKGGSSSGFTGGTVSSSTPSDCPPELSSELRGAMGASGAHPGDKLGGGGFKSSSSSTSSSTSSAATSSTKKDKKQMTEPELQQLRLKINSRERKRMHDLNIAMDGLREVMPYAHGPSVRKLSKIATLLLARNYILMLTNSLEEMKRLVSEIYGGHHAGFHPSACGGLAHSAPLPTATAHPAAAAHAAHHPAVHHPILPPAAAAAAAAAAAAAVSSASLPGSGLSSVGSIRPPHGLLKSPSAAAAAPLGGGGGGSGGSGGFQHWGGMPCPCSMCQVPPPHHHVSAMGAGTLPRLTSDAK
Put plainly: affinity purification with mass spectrometry; brain lysates pre-cleared with protein A-Sepharose, incubated with primary antibody and protein A-coated Sepharose beads for 2 hr at 4 °C, three washes in lysis buffer; SDS-PAGE, in-gel digestion, LC-MS/MS; proteins bound to OLIG2.

With DNMT1 (from UniProt P13864 1-1620), the binding result is reported as “no binding”.
“SWI/SNF chromatin remodeling enzyme SMARCA4 (also known as BRG1) (from UniProt Q3TKT4 1-1613)”: the binding result is “binds”.
To “EHMT2 (also known as G9a) (from UniProt Q9Z148 1-1263)” belongs “binds”.
